Measurements as given in the supplement of paper PMC11006884.
Shown are results outside the selection of targets with a hit, which stands elsewhere. This is a noisy data set. The entries are a selection whose mix differs from that of the whole data set.

Amino acid sequences for entries named in this document (tags omitted). A change or cut given only in a name is not applied to a line headed by its entry.
UniProt O00471: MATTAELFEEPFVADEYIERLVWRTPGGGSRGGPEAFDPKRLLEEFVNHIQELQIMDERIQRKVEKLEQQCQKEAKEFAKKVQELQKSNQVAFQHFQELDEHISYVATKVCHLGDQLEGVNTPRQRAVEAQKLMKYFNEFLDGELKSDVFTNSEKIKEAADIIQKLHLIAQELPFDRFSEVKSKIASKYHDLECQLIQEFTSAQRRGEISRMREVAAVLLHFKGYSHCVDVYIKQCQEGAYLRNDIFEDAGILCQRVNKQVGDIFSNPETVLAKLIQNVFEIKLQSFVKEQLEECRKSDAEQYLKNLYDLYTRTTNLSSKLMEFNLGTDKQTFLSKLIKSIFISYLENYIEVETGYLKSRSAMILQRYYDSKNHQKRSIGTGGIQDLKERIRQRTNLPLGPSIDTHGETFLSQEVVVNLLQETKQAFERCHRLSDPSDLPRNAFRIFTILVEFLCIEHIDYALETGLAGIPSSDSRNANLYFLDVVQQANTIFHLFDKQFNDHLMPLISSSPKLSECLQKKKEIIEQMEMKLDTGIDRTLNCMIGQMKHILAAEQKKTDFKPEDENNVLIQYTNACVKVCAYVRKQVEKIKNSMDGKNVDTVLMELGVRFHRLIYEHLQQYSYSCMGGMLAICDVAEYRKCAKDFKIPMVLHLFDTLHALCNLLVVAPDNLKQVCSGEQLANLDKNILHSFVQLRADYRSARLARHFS
UniProt O14715, whole entry: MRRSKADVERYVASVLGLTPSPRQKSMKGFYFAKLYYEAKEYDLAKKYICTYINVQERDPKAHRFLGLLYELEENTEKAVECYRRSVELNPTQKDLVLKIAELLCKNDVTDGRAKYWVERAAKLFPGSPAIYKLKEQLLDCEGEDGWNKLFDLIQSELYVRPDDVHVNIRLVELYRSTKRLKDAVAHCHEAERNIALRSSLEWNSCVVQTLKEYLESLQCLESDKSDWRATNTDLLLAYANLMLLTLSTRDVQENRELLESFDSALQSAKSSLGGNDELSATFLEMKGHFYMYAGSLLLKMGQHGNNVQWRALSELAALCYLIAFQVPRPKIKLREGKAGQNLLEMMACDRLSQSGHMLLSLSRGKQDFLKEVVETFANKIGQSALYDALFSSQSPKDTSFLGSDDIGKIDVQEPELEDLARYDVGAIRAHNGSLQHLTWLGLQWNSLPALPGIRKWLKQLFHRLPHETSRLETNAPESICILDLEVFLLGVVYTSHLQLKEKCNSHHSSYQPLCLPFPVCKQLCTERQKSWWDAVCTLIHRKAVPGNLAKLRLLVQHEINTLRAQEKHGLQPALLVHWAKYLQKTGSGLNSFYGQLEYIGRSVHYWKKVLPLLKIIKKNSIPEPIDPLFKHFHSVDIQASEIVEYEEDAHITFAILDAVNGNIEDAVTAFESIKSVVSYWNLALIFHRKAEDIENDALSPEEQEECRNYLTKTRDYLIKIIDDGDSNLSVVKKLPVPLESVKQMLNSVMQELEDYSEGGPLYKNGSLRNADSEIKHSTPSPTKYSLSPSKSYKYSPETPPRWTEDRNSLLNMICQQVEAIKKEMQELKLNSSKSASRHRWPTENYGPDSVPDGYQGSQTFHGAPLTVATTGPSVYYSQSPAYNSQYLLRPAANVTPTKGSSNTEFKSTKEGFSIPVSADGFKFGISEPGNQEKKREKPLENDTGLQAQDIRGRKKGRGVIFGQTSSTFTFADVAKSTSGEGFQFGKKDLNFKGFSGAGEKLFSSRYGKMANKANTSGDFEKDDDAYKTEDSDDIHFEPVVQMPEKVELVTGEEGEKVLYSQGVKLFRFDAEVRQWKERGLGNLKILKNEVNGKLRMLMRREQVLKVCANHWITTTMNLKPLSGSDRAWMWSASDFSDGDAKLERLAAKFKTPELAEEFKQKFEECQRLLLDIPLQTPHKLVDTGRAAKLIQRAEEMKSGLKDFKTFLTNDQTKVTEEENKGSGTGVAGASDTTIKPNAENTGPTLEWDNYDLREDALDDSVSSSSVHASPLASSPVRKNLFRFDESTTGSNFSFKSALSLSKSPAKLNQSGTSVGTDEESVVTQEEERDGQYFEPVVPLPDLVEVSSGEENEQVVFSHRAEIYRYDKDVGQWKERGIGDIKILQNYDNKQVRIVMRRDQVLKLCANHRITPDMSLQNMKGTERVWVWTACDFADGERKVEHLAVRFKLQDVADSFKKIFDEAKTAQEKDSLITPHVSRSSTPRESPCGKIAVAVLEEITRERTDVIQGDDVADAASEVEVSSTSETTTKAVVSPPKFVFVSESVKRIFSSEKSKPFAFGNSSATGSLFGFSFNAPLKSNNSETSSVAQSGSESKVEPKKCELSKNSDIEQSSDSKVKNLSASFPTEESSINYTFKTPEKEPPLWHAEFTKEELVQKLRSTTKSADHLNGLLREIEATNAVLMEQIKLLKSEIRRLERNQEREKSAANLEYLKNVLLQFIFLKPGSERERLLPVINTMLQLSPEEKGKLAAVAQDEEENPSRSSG
UniProt O00410: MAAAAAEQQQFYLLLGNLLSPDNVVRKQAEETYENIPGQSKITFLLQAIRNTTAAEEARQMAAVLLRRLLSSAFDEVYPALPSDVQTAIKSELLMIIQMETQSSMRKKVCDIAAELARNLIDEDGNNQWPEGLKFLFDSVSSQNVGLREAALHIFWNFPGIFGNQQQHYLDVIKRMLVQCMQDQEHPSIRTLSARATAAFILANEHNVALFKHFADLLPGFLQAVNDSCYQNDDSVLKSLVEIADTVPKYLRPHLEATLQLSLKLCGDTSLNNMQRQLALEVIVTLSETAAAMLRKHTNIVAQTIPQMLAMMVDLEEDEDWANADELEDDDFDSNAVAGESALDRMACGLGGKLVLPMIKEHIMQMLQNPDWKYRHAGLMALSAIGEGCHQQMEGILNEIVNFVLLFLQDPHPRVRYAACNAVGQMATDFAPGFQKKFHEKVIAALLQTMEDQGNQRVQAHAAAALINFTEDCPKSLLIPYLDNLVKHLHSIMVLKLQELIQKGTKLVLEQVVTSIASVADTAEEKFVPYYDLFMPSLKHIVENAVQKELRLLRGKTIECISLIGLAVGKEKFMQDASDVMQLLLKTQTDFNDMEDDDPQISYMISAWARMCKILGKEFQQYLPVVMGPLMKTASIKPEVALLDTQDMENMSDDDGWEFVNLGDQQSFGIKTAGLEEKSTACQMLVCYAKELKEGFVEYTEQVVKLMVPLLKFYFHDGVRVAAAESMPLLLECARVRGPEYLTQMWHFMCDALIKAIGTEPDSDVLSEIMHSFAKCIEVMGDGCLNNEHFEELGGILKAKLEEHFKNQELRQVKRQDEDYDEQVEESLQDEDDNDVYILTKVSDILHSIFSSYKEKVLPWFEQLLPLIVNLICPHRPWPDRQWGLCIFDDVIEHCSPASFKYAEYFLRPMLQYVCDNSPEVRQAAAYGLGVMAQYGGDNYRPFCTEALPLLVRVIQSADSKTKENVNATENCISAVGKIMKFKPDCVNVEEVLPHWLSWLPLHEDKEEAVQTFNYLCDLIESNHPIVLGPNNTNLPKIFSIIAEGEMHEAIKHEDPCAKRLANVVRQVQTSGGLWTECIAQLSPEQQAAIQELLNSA
UniProt O14618: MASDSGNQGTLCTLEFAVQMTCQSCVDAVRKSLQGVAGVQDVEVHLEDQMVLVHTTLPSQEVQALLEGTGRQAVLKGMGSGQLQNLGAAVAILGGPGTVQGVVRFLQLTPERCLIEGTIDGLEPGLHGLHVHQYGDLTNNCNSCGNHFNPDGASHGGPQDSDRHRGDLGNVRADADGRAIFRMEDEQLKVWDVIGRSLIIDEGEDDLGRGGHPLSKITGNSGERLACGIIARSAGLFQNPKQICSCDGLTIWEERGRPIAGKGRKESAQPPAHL
UniProt O00429, whole entry, looked up: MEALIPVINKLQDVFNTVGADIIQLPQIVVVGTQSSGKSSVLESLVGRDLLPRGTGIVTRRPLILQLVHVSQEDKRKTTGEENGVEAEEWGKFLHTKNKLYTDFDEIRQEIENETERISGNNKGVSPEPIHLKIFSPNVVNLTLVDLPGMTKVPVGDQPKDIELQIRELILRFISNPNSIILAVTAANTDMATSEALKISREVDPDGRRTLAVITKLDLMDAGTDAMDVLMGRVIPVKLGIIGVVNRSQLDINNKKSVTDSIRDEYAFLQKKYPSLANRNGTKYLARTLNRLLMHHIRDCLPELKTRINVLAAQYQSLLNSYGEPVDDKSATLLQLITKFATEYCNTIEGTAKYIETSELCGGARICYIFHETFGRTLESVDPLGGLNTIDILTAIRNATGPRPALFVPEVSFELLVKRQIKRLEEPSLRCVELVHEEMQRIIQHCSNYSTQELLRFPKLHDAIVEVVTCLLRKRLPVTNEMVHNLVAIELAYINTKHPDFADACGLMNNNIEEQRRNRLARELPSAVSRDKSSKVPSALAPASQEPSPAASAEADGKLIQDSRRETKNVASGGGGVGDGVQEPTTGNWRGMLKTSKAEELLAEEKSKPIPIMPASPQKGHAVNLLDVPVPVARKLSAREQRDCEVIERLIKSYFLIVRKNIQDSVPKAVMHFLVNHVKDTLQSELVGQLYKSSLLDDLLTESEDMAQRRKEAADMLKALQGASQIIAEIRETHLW
UniProt O00151: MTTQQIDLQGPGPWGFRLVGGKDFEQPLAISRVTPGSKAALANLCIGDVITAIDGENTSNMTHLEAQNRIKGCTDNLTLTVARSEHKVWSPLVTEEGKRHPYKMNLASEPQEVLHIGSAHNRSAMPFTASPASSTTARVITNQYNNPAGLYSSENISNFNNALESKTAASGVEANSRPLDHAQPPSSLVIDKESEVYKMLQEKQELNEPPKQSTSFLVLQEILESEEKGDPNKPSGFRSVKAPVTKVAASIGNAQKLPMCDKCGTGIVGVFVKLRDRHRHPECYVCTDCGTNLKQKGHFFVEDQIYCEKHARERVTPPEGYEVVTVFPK
UniProt O00567: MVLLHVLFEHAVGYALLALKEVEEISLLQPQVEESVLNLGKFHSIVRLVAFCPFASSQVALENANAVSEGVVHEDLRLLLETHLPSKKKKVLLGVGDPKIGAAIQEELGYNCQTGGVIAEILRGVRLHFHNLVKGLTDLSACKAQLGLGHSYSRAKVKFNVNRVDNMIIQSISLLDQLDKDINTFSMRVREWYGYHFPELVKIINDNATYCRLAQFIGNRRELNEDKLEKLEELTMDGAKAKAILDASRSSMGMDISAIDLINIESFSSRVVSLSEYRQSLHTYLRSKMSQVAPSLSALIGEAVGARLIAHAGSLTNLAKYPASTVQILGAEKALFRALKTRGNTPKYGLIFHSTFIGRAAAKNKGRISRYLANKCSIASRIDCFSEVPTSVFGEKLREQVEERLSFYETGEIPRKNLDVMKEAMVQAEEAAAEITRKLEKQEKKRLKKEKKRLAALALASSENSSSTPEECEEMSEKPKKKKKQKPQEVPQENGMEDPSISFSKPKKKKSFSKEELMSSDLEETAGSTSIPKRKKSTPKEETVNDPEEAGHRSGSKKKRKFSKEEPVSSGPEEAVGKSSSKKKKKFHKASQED
UniProt O15305: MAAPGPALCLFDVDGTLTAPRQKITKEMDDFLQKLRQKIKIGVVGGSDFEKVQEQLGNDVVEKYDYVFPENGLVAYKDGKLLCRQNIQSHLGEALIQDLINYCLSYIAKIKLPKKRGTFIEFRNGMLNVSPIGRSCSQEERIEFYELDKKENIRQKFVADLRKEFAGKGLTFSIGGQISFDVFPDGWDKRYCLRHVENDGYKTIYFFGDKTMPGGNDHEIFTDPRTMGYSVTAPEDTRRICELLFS
UniProt O43143: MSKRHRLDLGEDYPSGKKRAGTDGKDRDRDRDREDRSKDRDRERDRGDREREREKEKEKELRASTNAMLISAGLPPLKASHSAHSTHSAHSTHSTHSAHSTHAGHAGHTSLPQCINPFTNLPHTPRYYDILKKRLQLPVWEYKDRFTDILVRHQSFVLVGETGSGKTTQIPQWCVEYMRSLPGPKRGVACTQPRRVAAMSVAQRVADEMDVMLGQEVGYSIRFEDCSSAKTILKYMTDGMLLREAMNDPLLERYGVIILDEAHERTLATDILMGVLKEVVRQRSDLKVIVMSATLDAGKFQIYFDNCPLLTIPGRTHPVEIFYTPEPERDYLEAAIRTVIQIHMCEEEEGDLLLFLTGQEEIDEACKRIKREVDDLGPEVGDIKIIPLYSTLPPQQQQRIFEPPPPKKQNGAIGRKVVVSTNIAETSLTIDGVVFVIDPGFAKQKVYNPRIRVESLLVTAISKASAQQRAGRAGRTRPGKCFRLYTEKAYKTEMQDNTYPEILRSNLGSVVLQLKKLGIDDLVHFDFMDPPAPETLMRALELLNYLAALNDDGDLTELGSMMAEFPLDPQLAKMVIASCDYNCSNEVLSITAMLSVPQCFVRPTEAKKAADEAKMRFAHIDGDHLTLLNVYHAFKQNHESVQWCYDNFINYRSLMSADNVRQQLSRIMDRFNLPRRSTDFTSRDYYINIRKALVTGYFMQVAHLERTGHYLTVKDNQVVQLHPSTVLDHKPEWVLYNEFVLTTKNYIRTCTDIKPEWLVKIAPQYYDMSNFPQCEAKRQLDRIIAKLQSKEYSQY

Each target was assayed with COC(=O)/C=C/c1ccccc1 [methyl cinnamate] (assay: log2 ratio of iodoacetamide-alkyne labeling of the cysteine site, DMSO over compound (competition); higher = stronger covalent engagement of the cysteine by the compound, active = 1 or more). Conditions: 500 µM; treatment time 1 h; system: HEK293T cell lysate.
Method in brief: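 After 1 h at ambient temperature with vehicle or electrophile (500 µM), HEK293T lysate (2 mg/mL) was labelled for 1 h with iodoacetamide alkyne and clicked to sCIP-TMT reagents. Pooled samples were trypsin-digested overnight at 37 °C, streptavidin-enriched, acid-eluted and analysed by Orbitrap Eclipse LC-MS/MS with FAIMS, then quantified in FragPipe over three replicates with duplicate channels. A cysteine's log2 competition ratio is its mean control-channel over mean compound-channel reporter intensity. Cysteines quantified in only one replicate were not included.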
In the case of KIF2A C596 (UniProt O00139), the “log2 ratio of iodoacetamide-alkyne labeling” value (shortened to “log2 ratio”) is reported as inactive: -0.148. In the case of CDK2AP1 C105 (UniProt O14519), the “log2 ratio” value is reported as inactive: 0.294. In the case of EXOC5 C517 (UniProt O00471), the “log2 ratio” value is reported as inactive: 0.297. IRS4 C332 (UniProt O14654) was tested, and the “log2 ratio” value was inactive: 0.0576. In the case of UniProt O14715_C1431, the “log2 ratio” value is reported as inactive: 0.0959. IPO5 C420 (UniProt O00410) was tested, and the “log2 ratio” value was inactive: -0.0788. For DDX3X C128 (UniProt O00571), the “log2 ratio” value was inactive: 0.198. PPM1G C351 (UniProt O15355) was tested, and the “log2 ratio” value was inactive: 0.596. With UniProt O14618_C227 the “log2 ratio” value was inactive: 0.294. In the case of KMT2D C2249 (UniProt O14686), the “log2 ratio” value is reported as inactive: 0.51. GTPBP1 C241 (UniProt O00178) was tested, and the “log2 ratio” value was inactive: -0.0115. For DNM1L C446 (UniProt O00429), the “log2 ratio” value was inactive: 0.119. With UniProt O00442_C28 the “log2 ratio” value was inactive: 0.0664. With PFAS C1285 (UniProt O15067) the “log2 ratio” value was inactive: 0.292. In the case of PDLIM1 C260 (UniProt O00151), the “log2 ratio” value is reported as inactive: 0.105. UniProt O00567_C211 was tested, and the “log2 ratio” value was inactive: 0.29. For OGT C323 (UniProt O15294), the “log2 ratio” value was inactive: -0.159. PMM2 C103 (UniProt O15305) was tested, and the “log2 ratio” value was inactive: 0.158. UniProt O14965_C393 was tested, and the “log2 ratio” value was inactive: 0.174. For NDUFAB1 C140 (UniProt O14561), the “log2 ratio” value was inactive: 0.28. With DHX15 C774 (UniProt O43143) the “log2 ratio” value was inactive: 0.137. NVL C192 (UniProt O15381) was tested, and the “log2 ratio” value was inactive: 0.186.
